Measured values published in patent publication US11992473B2, “Compositions and methods for diagnosis and treatment of conditions related to the quality of aging and longevity” (Epitracker, Inc., priority 2018, dated 2024).
For some of these results: No dose or concentration is given here for some results. Square brackets hold non-standard residues; d marks the D form. Peptide text beside a SMILES is read from it. Hyp = O=C(O)[C@@H]1C[C@@H](O)CN1

What was measured:
[1] = Modified fish diet study: fold differences of serum metabolites; format: in vivo, Bottlenose dolphins (Tursiops truncatus); conditions: for Significant fold differences in serum between Month 0 and Month 1 in Modified Diet group: Month 1 vs Month 0
[2] = Serum global metabolomics and complex lipid profiling: wild versus Navy dolphins (Welch's two-sample t-tests); format: in vivo, Bottlenose dolphins (Tursiops truncatus); conditions: metabolites significantly higher in wild (Sarasota Bay) than in Navy dolphins

Row | Compound | Significant fold differences in serum between Baseline and Modified Diet groups at Month 1 [1] | Significant fold differences in serum between Month 0 and Month 1 in Modified Diet group [1] | Ratio of serum-based levels in wild versus Navy dolphins [2]
1 | NCCCCC(=O)O [5-aminovalerate] | 1.35 | 1.68 | 6.46
2 | CC(=O)NCCc1c[nH]cn1 [N-acetylhistamine] | 5.36 | 7.68 | 8.93
3 | N[C@@H](CCC(=O)NCC(=O)O)C(=O)O [Gamma-glutamylglycine] | – | – | 1.31
4 | CCCCCCCCCCCCCCCC(=O)OCC(COP(=O)(O)OCCN)OC(=O)CCCCCCCCCCCCCCC (stereo not shown) [PE (16:0/16:0)] | – | – | 1.54
5 | CCCCCCCCCCCCC(O)C(=O)O (stereo not shown) [2-hydroxymyristate] | – | – | 1.23
6 | O=C(O)[C@@H]1C[C@@H](O)CN1 (relative stereo) [Trans-4-hydroxyproline] | 1.46 | 1.52 | 4.17
7 | NC(=O)NCCCC[C@H](N)C(=O)O [Homocitrulline] | – | 1.32 | 1.25
8 | C[C@](N)(CO)C(=O)O [2-methylserine] | 1.52 | 1.62 | 2.58
9 | O=C(O)CCCCCCCCCCCCCCCCCCCCC(=O)O [Docosadioate (C22-DC), docosadioate] | – | 1.39 | 2.32
10 | lignoceroylcarnitine [Lignoceroylcarnitine (C24)] | 2.8 | 2.81 | 4.60
11 | O=C(O)[C@@H]1C[C@@H](O)CN1C(=O)[C@@H]1CCCN1 [Prolyl-hydroxyproline] (H-Pro-[Hyp]-OH) | 1.44 | 1.25 | 2.66
12 | O=C(O)CCCCCCCCCCCCCCCO [16-hydroxypalmitate] | – | 1.26 | 1.35
13 | N[C@@H](CCCCNCC(=O)O)C(=O)O [N6-carboxymethyllysine] | 1.78 | 2.11 | 2.3
14 | behenoylcarnitine [Behenoylcarnitine (C22)] | 1.32 | 1.48 | 2.73
15 | CC(C)(O)C(O)C(=O)O (stereo not shown) [2,3-dihydroxyisovalerate] | 2.02 | 1.89 | 1.72
16 | CS(=O)(=O)CC[C@H](N)C(=O)O [Methionine sulfone] | 1.42 | 1.48 | 1.35

Row | Compound | Significant fold differences in serum between Baseline and Modified Diet groups at Month 1 [1] | Significant fold differences in serum between Month 0 and Month 1 in Modified Diet group [1] | Ratio of serum-based levels in wild versus Navy dolphins [2]
17 | O=C(O)CCCC(=O)C(=O)O [2-oxoadipate] | – | 1.25 | 6.51
18 | O=C(O)/C=C/c1cnc[nH]1 [Trans-urocanate] | – | – | 4.36
19 | CCC(=O)NCC(=O)O [Propionylglycine] | – | – | 3.35
20 | Cn1cc(C(N)=O)ccc1=O [N1-Methyl-2-pyridone-5-carboxamide] | 1.38 | – | 1.39
21 | N[C@@H](CC(O)C(=O)O)C(=O)O (stereo partly shown) [4-hydroxyglutamate] | 1.74 | 1.75 | 4.78
22 | CCCCCCCCCCCCCCCCCCCC(=O)O [FFA (20:0)] | – | – | 2.62
23 | CCCCCCCCC(=O)O [Pelargonate (C9:0), pelargonate] | – | 1.17 | –
24 | O=C(O)CCC1NC(=O)NC1=O (stereo not shown) [Hydantoin 5-propionic acid] | – | – | 1.83
25 | O=C(O)CCc1cnc[nH]1 [Imidazole propionate] | – | 3.48 | 4.52
26 | 1-heptadecenoylglycerol (17:1) | 2.34 | 2.27 | –
27 | NCC(O)CC[C@H](N)C(=O)O (stereo partly shown) [5-hydroxylysine] | 1.28 | 1.28 | 5.60
28 | CCCCC/C=C\C/C=C\C/C=C\C/C=C\CCCC(=O)O[C@H](CO/C=C\CCCCCCCCCCCCCC)COP(=O)([O-])OCC[N+](C)(C)C [1-(1-enyl-palmitoyl)-2-arachidonoyl-GPC (P-16:0/20:4)] | 2.92 | 2.71 | –
29 | cerotoylcarnitine [Cerotoylcarnitine (C26)] | 3.38 | 2.88 | 5.93
30 | O=C(O)Cc1c[nH]cn1 [4-imidazoleacetate] | – | 3.94 | 5.94
31 | CCCCCCCCCCCCC/C=C/[C@@H](O)[C@H](COP(=O)([O-])OCC[N+](C)(C)C)NC(=O)CCCCCCCCCCCCCCCCCCCCCC [Tricosanoyl sphingomyelin (d18:1/23:0), tricosanoyl sphingomyelin (d18:1/23:0)] | 3.02 | 2.82 | –
